Reference: patent US20080318943A1, “Compounds and Uses Thereof - 848” (ASTRAZENECA AB, priority 2007, published 2008)
For at least one compound, name, drawing or mass did not settle the structure.

Sequences of proteins named here, by UniProt entry; tags and fusion partners are left off. Residues count along the entry.
UniProt P14867, 28-456: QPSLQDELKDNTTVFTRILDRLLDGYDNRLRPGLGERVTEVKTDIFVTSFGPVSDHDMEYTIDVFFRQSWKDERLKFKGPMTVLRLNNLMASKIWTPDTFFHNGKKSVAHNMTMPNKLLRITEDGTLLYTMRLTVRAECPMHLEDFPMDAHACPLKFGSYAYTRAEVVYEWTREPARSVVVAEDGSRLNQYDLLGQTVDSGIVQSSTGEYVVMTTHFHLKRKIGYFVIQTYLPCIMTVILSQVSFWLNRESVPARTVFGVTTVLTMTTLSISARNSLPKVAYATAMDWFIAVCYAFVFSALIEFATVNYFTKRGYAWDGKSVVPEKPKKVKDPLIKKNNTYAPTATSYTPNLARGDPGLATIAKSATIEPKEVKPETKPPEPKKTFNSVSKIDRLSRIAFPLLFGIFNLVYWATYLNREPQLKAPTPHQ
UniProt P18507, 40-475: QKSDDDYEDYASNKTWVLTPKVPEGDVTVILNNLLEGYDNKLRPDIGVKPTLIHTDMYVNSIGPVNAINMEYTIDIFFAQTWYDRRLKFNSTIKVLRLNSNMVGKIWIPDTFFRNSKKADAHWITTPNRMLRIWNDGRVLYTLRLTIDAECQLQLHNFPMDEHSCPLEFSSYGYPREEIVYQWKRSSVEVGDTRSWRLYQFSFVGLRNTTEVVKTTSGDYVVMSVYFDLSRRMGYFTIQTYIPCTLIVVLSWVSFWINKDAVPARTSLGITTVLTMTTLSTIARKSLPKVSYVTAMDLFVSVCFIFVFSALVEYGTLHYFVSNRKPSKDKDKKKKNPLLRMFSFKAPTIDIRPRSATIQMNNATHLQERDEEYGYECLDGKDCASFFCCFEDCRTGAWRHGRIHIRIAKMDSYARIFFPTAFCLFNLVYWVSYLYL
UniProt P47869, 29-451: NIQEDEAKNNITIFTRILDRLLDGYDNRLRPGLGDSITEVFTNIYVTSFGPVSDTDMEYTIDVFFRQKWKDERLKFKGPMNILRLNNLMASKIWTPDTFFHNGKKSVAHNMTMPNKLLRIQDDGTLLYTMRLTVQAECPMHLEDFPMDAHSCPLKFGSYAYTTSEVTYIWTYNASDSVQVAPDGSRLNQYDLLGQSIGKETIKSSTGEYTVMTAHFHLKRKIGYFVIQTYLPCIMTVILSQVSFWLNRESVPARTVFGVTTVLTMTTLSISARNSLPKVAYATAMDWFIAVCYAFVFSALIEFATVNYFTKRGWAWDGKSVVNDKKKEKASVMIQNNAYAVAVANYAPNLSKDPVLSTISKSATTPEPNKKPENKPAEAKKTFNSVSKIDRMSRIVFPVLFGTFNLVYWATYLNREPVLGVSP

Key:
[1] = molecular target: T1, GABAA receptor α1β2γ2 (Homo sapiens, UniProt P14867+P18507); assay: Two-electrode voltage-clamp potentiation of GABA EC10 current in Xenopus oocytes, GABAA1; format: cell-based; settings: percentage potentiation of GABA EC10 current divided by that of diazepam
T1 construct: expressed in transfected cells; host or cells: Xenopus laevis oocytes injected with cRNA
Description: (§1) GABAA receptors were heterologously expressed in Xenopus oocytes by injecting cRNA corresponding to human α1, α2, α3, α5, β2, P3 and γ2 subunits of the GABAA receptor genes. The specific subunit combinations (subtypes) were as follows: α1β2γ2, α2β3γ2, α3β3γ2, and α5β3γ2. The EC10 of GABA is approximated for each cell. Stability of GABA-mediated (EC10) current is established. Modulatory effect of test compound is determined and compared across subtypes. […] Thus, the assay can characterize modulatory effects and determine subtype selectivity of test compounds on major subtypes of GABAA receptors.
(§2) Xenopus laevis frogs (Xenopus I, Kalamazoo, Mich.) were anesthetized using 0.15% tricaine. Surgically removed ovarian lobes were teased out in OR2 solution (82 NaCl, 2.5 KCl, 5 HEPES, 1.5 NaH2PO4, 1 MgCl2, 0.1 EDTA, in mM, pH 7.4). […]
(§3) All measurements were done in a medium containing ND-96 (96 NaCl, 2 KCl, 1.8 CaCl2.2H2O, 1 MgCl2.6H2O, 5 HEPES, in mM, pH 7.5). […] The concentration of GABA corresponded to the EC10 value calculated for each oocyte. […]
(§4) Current amplitude (i) was measured from baseline to peak using Clampfit (Axon Inst., Foster City, Calif.). Potentiation was calculated as percent change from the baseline GABA current flux 100×(imod/icontrol)−1) where imod=current mediated by modulator+GABA and icontrol=current mediated by GABA alone. […]

[2] = molecular target: T2, GABAA receptor α2β3γ2 (Homo sapiens, UniProt P18507+P47869); assay: Two-electrode voltage-clamp potentiation of GABA EC10 current in Xenopus oocytes, GABAA2; format: cell-based; settings: percentage potentiation of GABA EC10 current divided by that of diazepam
T2 construct: expressed in transfected cells; host or cells: Xenopus laevis oocytes injected with cRNA
Description: as §1, §2, §3, §4

Compound: CCN1Cc2nc3c(-c4cnc(OC)nc4OC)c(F)ccc3c(N)c2C1=O [Example 34, 9-Amino-5-(2,4-dimethoxypyrimidin-5-yl)-2-ethyl-6-fluoro-2,3-dihydropyrrolo[3,4-b]quinolin-1-one]
- Relative Potentiation for GABAA1 [1]: −0.037
- Relative Potentiation for GABAA2 [2]: 0.23
